Results are given in words; binding and its absence hold for the method and conditions named. Some binding calls cover weakened binding; strength is not graded here.
Biological target: His-tagged human HER3 antigen (human) (UniProt P21860)
Experiment: SPR, Biacore 8K

The chains behind the UniProt entries cited, without tags or fusion partners. Residues count along the entry.
UniProt P21860, residues 20-643: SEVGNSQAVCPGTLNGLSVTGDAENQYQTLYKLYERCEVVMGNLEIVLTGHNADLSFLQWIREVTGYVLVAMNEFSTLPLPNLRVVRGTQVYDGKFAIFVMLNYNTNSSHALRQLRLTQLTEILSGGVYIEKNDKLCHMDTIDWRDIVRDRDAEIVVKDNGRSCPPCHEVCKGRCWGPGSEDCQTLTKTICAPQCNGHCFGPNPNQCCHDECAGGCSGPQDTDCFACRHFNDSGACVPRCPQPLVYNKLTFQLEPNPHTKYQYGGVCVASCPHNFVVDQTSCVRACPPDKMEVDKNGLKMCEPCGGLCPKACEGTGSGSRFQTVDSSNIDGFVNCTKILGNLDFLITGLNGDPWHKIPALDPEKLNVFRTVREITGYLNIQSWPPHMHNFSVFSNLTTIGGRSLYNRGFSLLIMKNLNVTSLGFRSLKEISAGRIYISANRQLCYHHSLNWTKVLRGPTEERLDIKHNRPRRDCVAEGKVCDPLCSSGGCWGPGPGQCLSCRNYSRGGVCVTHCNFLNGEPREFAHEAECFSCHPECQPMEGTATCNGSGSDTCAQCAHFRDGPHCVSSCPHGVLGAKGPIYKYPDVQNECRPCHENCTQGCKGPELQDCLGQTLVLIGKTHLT

- binding: binds
B1: Antibody A T94V (antibody, human IgG1, kappa, V domains shown)
VH: QVQLVQSGGGLVQPGRSLRLSCAASGFTFDDYAMHWVRQAPGKGLEWVSGISWNSGSIGYADSVKGRFTISRDNAKNSLYLQMNSLRAEDTALYYCAKEGLPGLDYWGQGTLVTVSS
VL: DIQMTQSPSSLSASIGDRATITCRASQHVGTYLNWYQQKPGKTPKLLISGAANLQSGVPSRFSGSGSGTDFTLTISSLQPEDFATYYCQQSYNVPPFSFGQGTKVEIKR

From EP4778941A1, “HER3/MET BINDING MOLECULE AND PHARMACEUTICAL USE THEREOF” (priority 2023, dated 2025)
